Measurements reported in the M2OR odorant receptor database.
This is a selection; strong and weak results do not stand in their true shares. The calls were merged from several studies; some rest on single wells. The list shows a part of the results.

Tests used:
Settings in all cases: stereoisomer not certain
[1] = biological target: T1, OR52N5 (Homo sapiens) (UniProt Q8NH56)
T1 sequence (whole entry): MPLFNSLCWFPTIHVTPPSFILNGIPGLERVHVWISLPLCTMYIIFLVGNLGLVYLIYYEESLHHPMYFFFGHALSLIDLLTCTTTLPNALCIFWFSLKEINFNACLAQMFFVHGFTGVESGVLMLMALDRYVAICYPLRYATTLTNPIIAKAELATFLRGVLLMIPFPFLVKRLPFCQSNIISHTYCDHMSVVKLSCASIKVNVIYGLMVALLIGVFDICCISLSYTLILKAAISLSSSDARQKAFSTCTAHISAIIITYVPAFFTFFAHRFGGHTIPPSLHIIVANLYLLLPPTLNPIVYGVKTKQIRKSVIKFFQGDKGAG
Method in brief: (§1)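 Assay methods differ from source to source, frequently being transient luciferase assays in mammalian cell lines. For each receptor–molecule pair, the label responsive (active) applies when the original authors judged the measured signal statistically different from baseline, and non-responsive (inactive) applies otherwise.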

[2] = biological target: T2, OR56A1 (Homo sapiens) (UniProt Q8NGH5)
T2 sequence (whole entry): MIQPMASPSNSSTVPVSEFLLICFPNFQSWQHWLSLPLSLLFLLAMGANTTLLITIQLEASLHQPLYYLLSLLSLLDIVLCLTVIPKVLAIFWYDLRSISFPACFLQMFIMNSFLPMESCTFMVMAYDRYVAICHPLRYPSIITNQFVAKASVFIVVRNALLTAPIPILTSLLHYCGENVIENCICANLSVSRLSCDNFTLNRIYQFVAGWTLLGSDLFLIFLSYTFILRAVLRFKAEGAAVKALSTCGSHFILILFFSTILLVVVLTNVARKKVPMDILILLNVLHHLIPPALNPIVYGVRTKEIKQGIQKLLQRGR
Method in brief: as §1

[3] = biological target: T3, OR56A4 (Homo sapiens) (UniProt Q8NGH8)
T3 sequence (whole entry): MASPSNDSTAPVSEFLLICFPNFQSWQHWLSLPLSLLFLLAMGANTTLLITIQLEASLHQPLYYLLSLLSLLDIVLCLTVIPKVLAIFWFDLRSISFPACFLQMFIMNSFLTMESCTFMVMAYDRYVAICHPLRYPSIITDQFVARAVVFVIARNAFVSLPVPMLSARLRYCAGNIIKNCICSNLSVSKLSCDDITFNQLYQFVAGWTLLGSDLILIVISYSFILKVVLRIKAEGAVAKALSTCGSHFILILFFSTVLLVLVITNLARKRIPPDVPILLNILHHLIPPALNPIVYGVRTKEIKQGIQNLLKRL
Method in brief: as §1

[4] = biological target: T4, OR56A5 (Homo sapiens) (UniProt P0C7T3)
T4 sequence (whole entry): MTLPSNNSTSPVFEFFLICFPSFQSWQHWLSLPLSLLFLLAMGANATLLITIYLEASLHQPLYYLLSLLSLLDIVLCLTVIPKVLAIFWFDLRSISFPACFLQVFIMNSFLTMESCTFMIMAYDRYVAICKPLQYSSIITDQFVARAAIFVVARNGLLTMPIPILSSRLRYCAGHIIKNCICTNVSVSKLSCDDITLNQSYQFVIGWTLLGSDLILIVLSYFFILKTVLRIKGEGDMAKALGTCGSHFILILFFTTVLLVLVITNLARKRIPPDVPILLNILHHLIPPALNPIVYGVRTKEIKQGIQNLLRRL
Method in brief: as §1

[5] = system: T5, OR5A1
T5 sequence (whole entry): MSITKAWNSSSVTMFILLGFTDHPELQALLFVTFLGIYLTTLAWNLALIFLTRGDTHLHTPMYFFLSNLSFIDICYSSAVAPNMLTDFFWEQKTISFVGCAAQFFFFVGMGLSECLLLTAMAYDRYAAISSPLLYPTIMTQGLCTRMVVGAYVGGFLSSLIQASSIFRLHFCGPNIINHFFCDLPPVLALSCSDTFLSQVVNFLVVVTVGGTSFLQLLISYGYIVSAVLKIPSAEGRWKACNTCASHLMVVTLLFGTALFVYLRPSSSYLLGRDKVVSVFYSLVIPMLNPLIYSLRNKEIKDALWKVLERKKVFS
Method in brief: as §1

[6] = system: T6, OR5A1; remark: listed apart in the source
T6 sequence (whole entry): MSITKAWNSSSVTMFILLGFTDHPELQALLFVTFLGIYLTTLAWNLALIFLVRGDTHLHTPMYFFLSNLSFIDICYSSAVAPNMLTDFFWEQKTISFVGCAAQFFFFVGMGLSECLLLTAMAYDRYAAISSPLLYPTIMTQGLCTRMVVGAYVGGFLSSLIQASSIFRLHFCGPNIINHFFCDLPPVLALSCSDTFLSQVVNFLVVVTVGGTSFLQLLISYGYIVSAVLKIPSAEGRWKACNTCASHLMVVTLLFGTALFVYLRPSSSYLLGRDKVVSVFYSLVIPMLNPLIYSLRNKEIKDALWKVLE
Method in brief: as §1

[7] = system: T7, OR5A1; remark: listed apart in the source
T7 sequence (whole entry): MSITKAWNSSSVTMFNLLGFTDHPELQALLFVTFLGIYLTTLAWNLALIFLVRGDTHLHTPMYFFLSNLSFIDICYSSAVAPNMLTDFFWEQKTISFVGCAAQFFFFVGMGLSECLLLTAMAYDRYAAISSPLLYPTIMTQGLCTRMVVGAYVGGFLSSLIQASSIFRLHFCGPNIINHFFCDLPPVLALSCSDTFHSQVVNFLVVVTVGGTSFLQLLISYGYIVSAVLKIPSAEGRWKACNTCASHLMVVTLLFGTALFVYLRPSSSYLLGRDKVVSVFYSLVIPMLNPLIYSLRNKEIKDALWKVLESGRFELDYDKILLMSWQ
Method in brief: as §1

[8] = biological target: T8, OR5A2 (Homo sapiens) (UniProt Q8NGI9)
T8 sequence (whole entry): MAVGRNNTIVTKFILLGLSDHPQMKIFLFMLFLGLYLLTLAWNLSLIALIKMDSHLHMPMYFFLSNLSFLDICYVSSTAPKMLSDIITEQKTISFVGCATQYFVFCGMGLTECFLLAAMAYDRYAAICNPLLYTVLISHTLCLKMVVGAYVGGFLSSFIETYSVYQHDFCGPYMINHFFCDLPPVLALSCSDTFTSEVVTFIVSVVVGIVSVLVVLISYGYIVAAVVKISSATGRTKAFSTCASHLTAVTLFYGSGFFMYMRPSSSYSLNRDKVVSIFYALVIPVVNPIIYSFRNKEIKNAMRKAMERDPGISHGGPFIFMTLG
Method in brief: as §1

[9] = biological target: T9, OR5AK2 (Homo sapiens) (UniProt Q8NH90)
T9 sequence (whole entry): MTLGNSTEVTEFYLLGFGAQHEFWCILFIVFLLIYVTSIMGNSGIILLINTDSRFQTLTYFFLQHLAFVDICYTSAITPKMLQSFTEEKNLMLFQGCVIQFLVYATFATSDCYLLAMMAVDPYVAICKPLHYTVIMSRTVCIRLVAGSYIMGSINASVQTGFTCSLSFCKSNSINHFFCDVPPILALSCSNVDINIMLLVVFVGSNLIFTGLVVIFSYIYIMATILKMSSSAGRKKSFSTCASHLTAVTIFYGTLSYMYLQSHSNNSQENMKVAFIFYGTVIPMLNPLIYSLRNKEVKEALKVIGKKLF
Method in brief: as §1

[10] = biological target: T10, OR5AC2 (Homo sapiens) (UniProt Q9NZP5)
T10 sequence (whole entry): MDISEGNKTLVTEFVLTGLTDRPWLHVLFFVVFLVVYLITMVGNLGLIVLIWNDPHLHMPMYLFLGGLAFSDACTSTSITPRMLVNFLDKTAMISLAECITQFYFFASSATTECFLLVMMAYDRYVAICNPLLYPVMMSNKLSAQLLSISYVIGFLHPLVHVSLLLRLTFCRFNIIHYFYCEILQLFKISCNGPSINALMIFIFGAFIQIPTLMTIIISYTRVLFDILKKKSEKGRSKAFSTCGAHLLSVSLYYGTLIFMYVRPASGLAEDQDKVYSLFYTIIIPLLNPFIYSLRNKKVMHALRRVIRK
Method in brief: as §1

SMILES	odorant receptor agonist call [1]	odorant receptor agonist call [2]	odorant receptor agonist call [3]	odorant receptor agonist call [4]	odorant receptor agonist call [5]	odorant receptor agonist call [6]	odorant receptor agonist call [7]	odorant receptor agonist call [8]	odorant receptor agonist call [9]	odorant receptor agonist call [10]
C=CCSCC=C	inactive	inactive	inactive	inactive	inactive	inactive	inactive	inactive	inactive	
CC(=O)OC1CC2CCC1(C)C2(C)C (configuration not stated)	inactive	inactive	inactive	inactive	inactive	active	inactive	inactive	inactive	inactive
CCCCCCCOC(C)=O	inactive	inactive	inactive	inactive	inactive	inactive	inactive	inactive	inactive	
CC(C)(C)c1ccc(CCC=O)cc1	active	inactive	inactive	inactive	inactive	inactive	inactive	inactive	inactive	
CCCCCCCCCC=O	active	inactive	inactive	inactive	inactive	inactive	inactive	inactive	inactive	
CC(=O)OCC=C(C)CCC=C(C)C	active	inactive	active	inactive	inactive	inactive	inactive	inactive	inactive	
O=CCc1ccccc1	active	inactive	inactive	inactive	inactive	inactive	inactive	inactive	inactive	
CC(C)(O)CCCC1=CCC(C=O)CC1 (configuration not stated)	active		inactive	inactive						
COC(=O)c1ccccc1O	inactive	inactive	inactive	inactive	inactive	inactive	inactive	inactive	inactive	
CC1=NC(C)SC1C (configuration not stated)		inactive			inactive	inactive	inactive	inactive	inactive	
CC1CCC(C(C)C)C(O)C1 (configuration not stated)	inactive	inactive	inactive	inactive	active	inactive	inactive	inactive	inactive	
CCCCCC(=O)O	inactive	inactive	inactive	inactive	inactive	inactive	inactive	inactive	inactive	
CCC=CCCO	inactive	inactive	inactive	inactive	inactive	inactive	inactive	inactive	inactive	
CC=Cc1ccc(O)c(OC)c1	active	inactive	active	active	inactive	inactive	inactive	inactive	inactive	
CCCCCOC(C)=O	inactive	inactive	inactive	inactive	inactive	inactive	inactive	inactive	inactive	
COC(=O)c1ccccc1		inactive			inactive	inactive	inactive	inactive	inactive	
CC(C)C=O	inactive	inactive	inactive	inactive	inactive	inactive	inactive	inactive	inactive	
C=C(C)C1CCC2=CC(=O)CC(C)C2(C)C1 (configuration not stated)	active		inactive	active						
O=C1CCCCC1		inactive			inactive	inactive	inactive	inactive	inactive	
CC12CCC(C1)C(C)(C)C2=O (configuration not stated)	inactive	inactive	inactive	inactive	inactive	inactive	inactive	inactive	inactive	
CC(=O)c1ccccc1		inactive			inactive	inactive	inactive	active	inactive	
CCCCCCOC(=O)CCC	inactive	inactive	inactive	inactive	inactive	inactive	inactive	inactive	inactive	
CC(C)C(=O)O	inactive	inactive	inactive	active	inactive	inactive	inactive	inactive	inactive	
CCCCO	inactive	inactive	inactive	inactive	inactive	inactive	inactive	inactive	inactive	
CC12C=CCC1C1CCC3=CC(=O)CCC3(C)C1CC2 (configuration not stated)	inactive	inactive	inactive	inactive	inactive	inactive	inactive	inactive	inactive	
CCCCCC(C)=O		inactive			inactive	inactive	inactive	inactive	inactive	inactive
COc1cc(C=O)ccc1O	inactive	inactive	inactive	inactive	inactive	inactive	inactive	inactive	inactive	
CCCCCCCCCCC=O	active	inactive	active	inactive	inactive	inactive	inactive	inactive	inactive	

Taken from above.
Under odorant receptor agonist call [4], CCCCCCCCCCC=O reads inactive
Under odorant receptor agonist call [7], O=CCc1ccccc1 reads inactive
